Measurements published in patent US6998382B2, “Process for making perfume containing surfactant compositions having perfume burst and enhanced perfume deposition when diluted” (Unilever Home & Personal Care USA, a division of Conopco, …, priority 2002, dated 2006).

Experiment: Perfume headspace (fragrance burst) on dilution of single perfumes in surfactant shower product, GC headspace
Type: physicochemical
Settings: 5% sodium laurate shower product diluted through the CMC

## Cc1ccc(C(C)C)cc1 [p-Cymene]
  fragrance burst: 120%

## CC(=O)OCc1ccccc1 [Benzyl Acetate]
  fragrance burst: no fragrance burst at all

## CC1=CCC2CC1C2(C)C (stereo not drawn) [α-pinene]
  fragrance burst: 50%

## CC(=O)/C(C)=C/C1C(C)=CCCC1(C)C (centres unmarked) [γ-methyl ionone]
  fragrance burst: 460%

## Tetrahydrolinolool
  fragrance burst: 320%

## CC(=O)/C=C/C1C(C)=CCCC1(C)C (stereo not drawn) [α-ionone]
  fragrance burst: 430%

## OCCOc1ccccc1 [2-Phenoxyethanol]
  fragrance burst: no fragrance burst at all

## C=C(C)[C@H]1CC=C(C)CC1 [Limonene]
  fragrance burst: ~95%
